# According to the supplement of paper PMC12823440, “Inhibitors supercharge kinase turnover through native proteolytic circuits” (Nature, 2025):
# By UniProt entry, the sequences of proteins in these tests, tags left out. Where a name states a change or a piece, a line headed by the entry shows the natural chain unless it says otherwise.
# UniProt Q14289, whole entry, looked up: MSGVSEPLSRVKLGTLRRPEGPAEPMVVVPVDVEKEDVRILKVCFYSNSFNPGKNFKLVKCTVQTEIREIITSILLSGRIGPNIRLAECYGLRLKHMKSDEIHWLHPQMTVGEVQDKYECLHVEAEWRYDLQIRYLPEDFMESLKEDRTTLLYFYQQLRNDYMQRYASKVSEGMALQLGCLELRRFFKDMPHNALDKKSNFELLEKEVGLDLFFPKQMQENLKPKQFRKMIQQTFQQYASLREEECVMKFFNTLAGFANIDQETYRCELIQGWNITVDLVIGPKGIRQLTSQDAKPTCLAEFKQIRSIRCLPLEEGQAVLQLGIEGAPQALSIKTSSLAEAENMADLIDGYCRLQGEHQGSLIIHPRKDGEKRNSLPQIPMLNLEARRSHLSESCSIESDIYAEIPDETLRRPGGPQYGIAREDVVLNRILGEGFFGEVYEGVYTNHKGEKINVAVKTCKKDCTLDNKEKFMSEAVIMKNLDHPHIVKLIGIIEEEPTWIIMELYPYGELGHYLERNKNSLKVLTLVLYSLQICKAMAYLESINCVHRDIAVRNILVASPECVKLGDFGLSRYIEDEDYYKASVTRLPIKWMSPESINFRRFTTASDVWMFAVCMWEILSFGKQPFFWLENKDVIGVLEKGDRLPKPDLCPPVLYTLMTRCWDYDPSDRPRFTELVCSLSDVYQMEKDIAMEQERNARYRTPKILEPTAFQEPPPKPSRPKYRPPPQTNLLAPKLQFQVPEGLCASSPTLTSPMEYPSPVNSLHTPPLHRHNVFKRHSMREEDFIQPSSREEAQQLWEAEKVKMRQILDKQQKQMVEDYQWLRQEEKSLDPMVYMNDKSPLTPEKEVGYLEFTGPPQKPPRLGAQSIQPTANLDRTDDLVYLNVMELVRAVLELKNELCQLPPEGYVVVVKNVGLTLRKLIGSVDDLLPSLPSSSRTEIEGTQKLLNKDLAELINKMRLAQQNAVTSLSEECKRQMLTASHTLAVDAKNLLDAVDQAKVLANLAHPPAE
# UniProt Q9BRS2: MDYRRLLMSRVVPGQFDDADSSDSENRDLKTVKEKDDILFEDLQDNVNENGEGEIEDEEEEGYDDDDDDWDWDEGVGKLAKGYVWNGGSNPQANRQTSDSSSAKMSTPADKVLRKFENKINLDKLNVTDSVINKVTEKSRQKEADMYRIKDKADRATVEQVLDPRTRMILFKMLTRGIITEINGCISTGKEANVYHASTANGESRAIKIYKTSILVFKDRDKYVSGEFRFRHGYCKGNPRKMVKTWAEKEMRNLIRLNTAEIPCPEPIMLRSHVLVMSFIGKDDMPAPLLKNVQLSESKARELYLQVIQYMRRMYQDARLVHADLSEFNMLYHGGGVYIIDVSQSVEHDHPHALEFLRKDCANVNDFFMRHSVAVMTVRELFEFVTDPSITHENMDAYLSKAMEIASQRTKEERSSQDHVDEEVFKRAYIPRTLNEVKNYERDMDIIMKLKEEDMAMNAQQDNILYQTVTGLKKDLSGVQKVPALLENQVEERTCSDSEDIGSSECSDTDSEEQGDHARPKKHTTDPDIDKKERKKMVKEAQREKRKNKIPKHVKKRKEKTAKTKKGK
# UniProt Q13546: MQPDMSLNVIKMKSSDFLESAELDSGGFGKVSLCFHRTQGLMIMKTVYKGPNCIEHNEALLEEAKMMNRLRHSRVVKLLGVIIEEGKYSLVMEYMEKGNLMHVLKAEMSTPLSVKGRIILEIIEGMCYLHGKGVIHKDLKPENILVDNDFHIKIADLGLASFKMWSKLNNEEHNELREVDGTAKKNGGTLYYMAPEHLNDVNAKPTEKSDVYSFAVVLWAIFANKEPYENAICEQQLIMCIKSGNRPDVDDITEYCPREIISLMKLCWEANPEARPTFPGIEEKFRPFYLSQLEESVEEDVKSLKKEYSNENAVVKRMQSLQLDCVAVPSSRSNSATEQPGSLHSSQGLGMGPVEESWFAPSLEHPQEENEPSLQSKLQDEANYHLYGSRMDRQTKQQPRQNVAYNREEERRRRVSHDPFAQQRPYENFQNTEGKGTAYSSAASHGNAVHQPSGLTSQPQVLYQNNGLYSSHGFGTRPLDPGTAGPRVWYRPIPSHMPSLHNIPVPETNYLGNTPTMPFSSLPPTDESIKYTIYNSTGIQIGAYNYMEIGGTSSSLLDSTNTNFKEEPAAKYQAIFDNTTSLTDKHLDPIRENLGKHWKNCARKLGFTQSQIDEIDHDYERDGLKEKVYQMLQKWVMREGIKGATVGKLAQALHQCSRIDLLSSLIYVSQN
# UniProt Q01974, whole entry: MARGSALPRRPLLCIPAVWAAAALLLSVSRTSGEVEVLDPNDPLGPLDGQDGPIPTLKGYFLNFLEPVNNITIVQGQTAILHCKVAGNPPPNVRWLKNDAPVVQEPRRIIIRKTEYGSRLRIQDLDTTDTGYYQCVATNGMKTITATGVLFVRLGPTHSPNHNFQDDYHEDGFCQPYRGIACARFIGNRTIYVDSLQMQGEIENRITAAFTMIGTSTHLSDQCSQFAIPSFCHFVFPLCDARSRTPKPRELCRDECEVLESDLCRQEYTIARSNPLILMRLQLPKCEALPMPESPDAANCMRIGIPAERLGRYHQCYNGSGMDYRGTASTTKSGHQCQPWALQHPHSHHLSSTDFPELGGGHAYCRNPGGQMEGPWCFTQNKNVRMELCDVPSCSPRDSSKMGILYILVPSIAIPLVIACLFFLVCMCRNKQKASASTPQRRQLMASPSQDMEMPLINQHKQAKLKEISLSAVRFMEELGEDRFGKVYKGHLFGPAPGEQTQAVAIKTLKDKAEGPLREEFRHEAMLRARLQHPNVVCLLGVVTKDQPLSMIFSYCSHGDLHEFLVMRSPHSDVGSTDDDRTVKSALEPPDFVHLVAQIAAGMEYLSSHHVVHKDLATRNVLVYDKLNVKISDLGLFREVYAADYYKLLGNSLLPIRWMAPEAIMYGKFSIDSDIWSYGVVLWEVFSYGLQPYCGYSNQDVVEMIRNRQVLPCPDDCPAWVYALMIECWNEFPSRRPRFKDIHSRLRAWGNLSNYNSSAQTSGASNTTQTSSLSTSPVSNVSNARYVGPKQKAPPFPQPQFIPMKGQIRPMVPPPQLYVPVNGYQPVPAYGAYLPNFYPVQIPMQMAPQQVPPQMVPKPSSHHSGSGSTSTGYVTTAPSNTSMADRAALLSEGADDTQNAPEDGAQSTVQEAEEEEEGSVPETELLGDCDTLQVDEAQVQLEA
# UniProt Q15418, whole entry: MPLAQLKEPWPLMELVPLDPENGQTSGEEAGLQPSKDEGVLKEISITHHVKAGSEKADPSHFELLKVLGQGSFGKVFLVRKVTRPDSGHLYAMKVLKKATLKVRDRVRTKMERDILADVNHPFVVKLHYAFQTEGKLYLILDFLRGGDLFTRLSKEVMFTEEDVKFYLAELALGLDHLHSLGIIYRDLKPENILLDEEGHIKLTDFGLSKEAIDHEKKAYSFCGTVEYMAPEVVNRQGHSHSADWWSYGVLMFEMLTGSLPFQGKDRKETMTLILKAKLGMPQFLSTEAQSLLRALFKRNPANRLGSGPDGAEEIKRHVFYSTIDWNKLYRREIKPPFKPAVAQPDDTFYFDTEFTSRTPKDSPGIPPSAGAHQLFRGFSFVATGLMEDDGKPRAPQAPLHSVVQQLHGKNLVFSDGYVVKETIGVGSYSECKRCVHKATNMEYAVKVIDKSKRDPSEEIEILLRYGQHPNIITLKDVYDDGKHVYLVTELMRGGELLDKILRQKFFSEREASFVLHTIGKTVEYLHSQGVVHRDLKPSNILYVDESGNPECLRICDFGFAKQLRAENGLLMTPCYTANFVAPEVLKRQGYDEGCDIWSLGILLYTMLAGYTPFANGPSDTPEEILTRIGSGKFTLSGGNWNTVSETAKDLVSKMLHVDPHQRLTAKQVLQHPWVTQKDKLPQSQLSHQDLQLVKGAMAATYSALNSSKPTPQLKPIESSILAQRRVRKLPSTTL
# UniProt Q9NYA1, whole entry: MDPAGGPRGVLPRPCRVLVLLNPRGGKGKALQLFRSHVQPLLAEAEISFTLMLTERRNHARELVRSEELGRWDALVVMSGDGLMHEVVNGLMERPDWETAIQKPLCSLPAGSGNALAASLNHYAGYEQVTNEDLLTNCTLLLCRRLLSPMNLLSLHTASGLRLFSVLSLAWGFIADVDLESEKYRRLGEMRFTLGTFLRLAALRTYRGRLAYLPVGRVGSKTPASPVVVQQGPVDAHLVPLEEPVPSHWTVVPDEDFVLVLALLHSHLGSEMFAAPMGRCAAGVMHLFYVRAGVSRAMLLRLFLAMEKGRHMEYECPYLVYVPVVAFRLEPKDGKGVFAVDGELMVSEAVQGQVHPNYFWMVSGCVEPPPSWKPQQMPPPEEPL
# UniProt Q15208: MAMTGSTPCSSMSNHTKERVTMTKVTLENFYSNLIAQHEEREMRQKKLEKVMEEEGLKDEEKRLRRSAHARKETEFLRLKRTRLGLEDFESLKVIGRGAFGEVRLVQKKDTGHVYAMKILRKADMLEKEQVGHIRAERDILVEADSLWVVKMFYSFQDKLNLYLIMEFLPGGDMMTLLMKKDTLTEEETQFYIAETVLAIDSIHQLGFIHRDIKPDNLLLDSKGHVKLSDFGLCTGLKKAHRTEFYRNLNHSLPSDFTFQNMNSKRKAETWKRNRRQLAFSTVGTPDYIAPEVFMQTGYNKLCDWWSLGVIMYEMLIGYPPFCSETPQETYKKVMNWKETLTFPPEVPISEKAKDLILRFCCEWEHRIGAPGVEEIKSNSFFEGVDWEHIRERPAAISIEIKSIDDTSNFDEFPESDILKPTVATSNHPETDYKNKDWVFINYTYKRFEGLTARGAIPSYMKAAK
# UniProt P42680: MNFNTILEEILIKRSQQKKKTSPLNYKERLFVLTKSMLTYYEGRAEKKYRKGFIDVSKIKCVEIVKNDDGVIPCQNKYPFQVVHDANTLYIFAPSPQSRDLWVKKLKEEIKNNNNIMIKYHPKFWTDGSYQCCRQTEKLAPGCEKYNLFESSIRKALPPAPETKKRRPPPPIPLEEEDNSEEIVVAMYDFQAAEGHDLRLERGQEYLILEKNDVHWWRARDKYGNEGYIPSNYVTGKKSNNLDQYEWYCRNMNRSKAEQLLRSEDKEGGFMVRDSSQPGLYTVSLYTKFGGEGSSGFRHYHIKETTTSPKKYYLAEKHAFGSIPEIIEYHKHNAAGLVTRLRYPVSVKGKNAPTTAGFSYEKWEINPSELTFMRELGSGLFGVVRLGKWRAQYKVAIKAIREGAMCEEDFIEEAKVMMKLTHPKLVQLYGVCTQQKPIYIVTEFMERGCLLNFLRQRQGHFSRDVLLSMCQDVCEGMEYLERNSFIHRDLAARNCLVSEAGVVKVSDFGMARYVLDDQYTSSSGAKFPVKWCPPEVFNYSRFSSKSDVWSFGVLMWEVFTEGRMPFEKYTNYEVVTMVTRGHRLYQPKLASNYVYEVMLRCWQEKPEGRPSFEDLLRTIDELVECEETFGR
# UniProt P29597: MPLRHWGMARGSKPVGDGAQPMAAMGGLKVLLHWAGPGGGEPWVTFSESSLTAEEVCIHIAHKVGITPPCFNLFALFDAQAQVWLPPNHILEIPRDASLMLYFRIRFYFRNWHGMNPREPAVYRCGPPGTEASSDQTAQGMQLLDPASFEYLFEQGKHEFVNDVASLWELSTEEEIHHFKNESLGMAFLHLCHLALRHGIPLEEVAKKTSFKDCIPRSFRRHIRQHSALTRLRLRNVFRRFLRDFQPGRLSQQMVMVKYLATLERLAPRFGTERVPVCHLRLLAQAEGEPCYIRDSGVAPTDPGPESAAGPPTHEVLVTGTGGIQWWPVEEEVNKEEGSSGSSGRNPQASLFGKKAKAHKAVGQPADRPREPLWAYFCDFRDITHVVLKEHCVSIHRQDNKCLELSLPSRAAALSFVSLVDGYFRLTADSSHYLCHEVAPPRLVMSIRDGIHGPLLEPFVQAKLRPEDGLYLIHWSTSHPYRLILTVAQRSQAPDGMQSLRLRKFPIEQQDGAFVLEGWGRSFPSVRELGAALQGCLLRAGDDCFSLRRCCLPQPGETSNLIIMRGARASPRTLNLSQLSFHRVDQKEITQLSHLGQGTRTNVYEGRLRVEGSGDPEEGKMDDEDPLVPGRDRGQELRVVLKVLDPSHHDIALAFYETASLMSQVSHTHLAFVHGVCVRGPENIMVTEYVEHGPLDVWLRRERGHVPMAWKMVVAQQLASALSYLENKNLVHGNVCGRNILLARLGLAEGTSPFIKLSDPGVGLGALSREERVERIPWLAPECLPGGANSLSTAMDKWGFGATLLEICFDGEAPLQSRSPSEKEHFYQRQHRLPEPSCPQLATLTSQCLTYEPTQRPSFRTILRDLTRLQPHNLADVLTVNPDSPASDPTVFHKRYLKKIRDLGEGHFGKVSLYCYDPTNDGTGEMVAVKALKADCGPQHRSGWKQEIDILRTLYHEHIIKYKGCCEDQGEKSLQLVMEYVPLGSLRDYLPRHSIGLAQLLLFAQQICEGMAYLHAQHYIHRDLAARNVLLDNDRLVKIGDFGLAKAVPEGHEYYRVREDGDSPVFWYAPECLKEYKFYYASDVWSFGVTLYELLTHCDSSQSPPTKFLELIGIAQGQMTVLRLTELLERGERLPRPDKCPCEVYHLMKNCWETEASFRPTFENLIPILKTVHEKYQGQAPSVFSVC
# Where a name gives a salt, the structure may show the parent alone. The list shows a part of the results. The calls rarely recur for the same compound in another form.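 Kinases, fused to nanoluciferase, were expressed in K562 cells; luminescence was measured every 4 h from 2 to 18 h as percent of control (DMSO = 100%, positive control = 0%). A time point is decreased if signal falls significantly (2 sigma). Hits were called by the authors by a rule that is not shown; the count of time points alone does not decide it.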
# Experiments:
# Experiment in all cases: number of time points (of 5) at which kinase-Nluc abundance scored as decreased, DMSO-normalised (count); higher = more persistent destabilization
# Conditions in all cases: K562; 2-18 h
# PRKCA = PRKCA (UniProt P17252)
# PTK2 = PTK2 (UniProt Q05397)
# PTK2B = PTK2B (UniProt Q14289)
# RAF1 = RAF1 (UniProt P04049)
# [1] = target: RAF1_S257L (clone: RAF1_mut) (UniProt P04049)
# RET = RET (UniProt P07949)
# [2] = target: RET_M918T (clone: RET_mut) (UniProt P07949)
# RIOK1 = RIOK1 (UniProt Q9BRS2)
# RIPK1 = RIPK1 (UniProt Q13546)
# RIPK2 = RIPK2 (UniProt O43353)
# ROR2 = ROR2 (UniProt Q01974)
# RPS6KA1 = RPS6KA1 (UniProt Q15418)
# SPHK1 = SPHK1 (UniProt Q9NYA1)
# SRC = SRC (UniProt P12931)
# STK24 = STK24 (UniProt Q9Y6E0)
# STK38 = STK38 (UniProt Q15208)
# SYK = SYK (UniProt P43405)
# TEC = TEC (UniProt P42680)
# TYK2 = TYK2 (UniProt P29597)
# ULK3 = ULK3 (UniProt Q6PHR2)
SMILES,number of time points (PRKCA),number of time points (PTK2),number of time points (PTK2B),number of time points (RAF1),number of time points [1],number of time points (RET),number of time points [2],number of time points (RIOK1),number of time points (RIPK1),number of time points (RIPK2),number of time points (ROR2),number of time points (RPS6KA1),number of time points (SPHK1),number of time points (SRC),number of time points (STK24),number of time points (STK38),number of time points (SYK),number of time points (TEC),number of time points (TYK2),number of time points (ULK3)
Oc1ccc(-c2nc(-c3ccc(F)cc3)c(-c3ccncc3)[nH]2)cc1 (2.5 µM),0,0,0,0,0,0,0,0,0,0,0,0,0,0,0,0,0,0,0,0
CC(=O)N1CCN(c2ccc(OCC3COC(Cn4ccnc4)(c4ccc(Cl)cc4Cl)O3)cc2)CC1 (stereo not given) [Ketoconazole] (2.5 µM),0,0,0,0,0,0,0,0,0,0,0,0,0,0,0,0,0,0,0,0
COc1cc(C(=O)NC2CCN(C)CC2)ccc1Nc1ncc2c(n1)N(C1CCCC1)CC(F)(F)C(=O)N2C (10 µM),0,0,0,0,0,0,0,0,0,0,0,0,1,0,0,0,0,0,1,0
Cc1c[nH]c(/C=C2\C(=O)Nc3ccccc32)c1CCC(=O)O (10 µM),0,0,0,0,0,0,0,0,0,0,0,0,0,0,0,0,0,0,0,0
O=C([O-])c1ccccc1O.[Na+] [Sodium Salicylate] (10 µM),0,0,0,0,0,0,0,0,0,0,0,0,0,0,0,0,0,0,0,0
COc1cc2c(Nc3ccc(NC(=O)c4ccccc4)cc3)ncnc2cc1OCCCN1CCOCC1 (10 µM),0,0,0,0,0,0,0,0,0,0,0,0,0,0,0,0,0,0,2,0
"O=c1cc(-c2ccccc2)oc2c(O)c(O)ccc12 [7,8-Dihydroxyflavone] (10 µM)",0,0,0,0,0,0,0,0,0,0,0,0,0,0,0,0,0,0,0,0
CNc1nc(-c2ccc3c(N)n[nH]c3c2)cc(N2C[C@@H](C(=O)NC3CCCCC3)CC[C@H]2C)n1 (10 µM),0,0,0,0,0,0,0,0,0,0,0,0,0,0,0,0,0,0,0,0
CC(C)(C)c1nc2c3cc[nH]c(=O)c3c3cc(F)ccc3c2[nH]1 [Pyridone 6] (10 µM),0,0,0,0,0,0,0,0,0,0,0,0,0,0,0,0,0,0,0,0
CN(C)C[C@@H]1CCn2cc(c3ccccc32)C2=C(C(=O)NC2=O)c2cn(c3ccccc23)CCO1 [Ruboxistaurin (hydrochloride)] (10 µM),0,0,0,0,0,0,0,0,0,0,0,0,0,0,0,0,0,0,0,0
C=CC(=O)N[C@H]1COC[C@H]1Nc1ncc2cc(-c3c(Cl)c(OC)cc(OC)c3Cl)c(=O)n(C)c2n1 (10 µM),0,0,0,0,0,0,0,0,0,0,0,0,0,0,0,0,0,0,0,0
C[C@H](CN(C)C)Oc1nc(Nc2cc3cccc(Cl)c3cn2)cnc1C#N (10 µM),0,0,0,0,0,0,0,0,0,0,0,0,0,0,0,0,0,0,0,0
CCOc1cc2ncc(C#N)c(Nc3ccc(OCc4ccccn4)c(Cl)c3)c2cc1NC(=O)/C=C/CN(C)C [Neratinib] (10 µM),0,2,0,0,0,0,0,0,0,0,0,0,0,0,0,0,0,0,0,0
CN1CCN(C2CCN(C(=O)Nc3cc(Oc4ccc(NC(=O)C5(C(=O)Nc6ccc(F)cc6)CC5)c(F)c4)ccn3)CC2)CC1 [Golvatinib] (2.5 µM),0,0,0,2,3,0,0,1,0,4,0,0,0,0,0,0,0,0,3,2
O=C(O)CCNC(=O)c1ccc(/N=N/c2ccc(O)c(C(=O)O)c2)cc1 [Balsalazide] (10 µM),0,0,0,0,0,0,0,0,0,0,0,0,0,0,0,0,0,0,0,0
COc1ccc(C=C(C#N)c2cccnc2)cc1OC (10 µM),0,0,0,0,0,0,0,0,0,0,0,0,0,0,0,0,0,0,0,0
CCOc1ccn(-c2ccc(F)cc2)c(=O)c1C(=O)Nc1ccc(Oc2ccnc(N)c2Cl)c(F)c1 (10 µM),0,1,1,1,4,2,0,2,1,3,0,0,0,0,0,0,0,1,1,3
CN1CCN(c2ccc(Nc3cc(-c4cccc(-n5ccc6cc(C7CC7)cc(F)c6c5=O)c4CO)cn(C)c3=O)nc2)CC1 (2.5 µM),0,0,0,0,0,0,0,0,0,0,0,0,2,0,0,0,0,0,0,0
CCn1cc(-c2ccnc3[nH]c(-c4cccc(CN(C)C)c4)cc23)c(-c2ccc(NC(=O)N(C)C)cc2)n1 (2.5 µM),0,0,0,0,0,0,0,0,0,0,0,0,0,0,0,0,0,0,0,0
COCc1c(-c2ccc(NC(=O)Nc3cc(C(F)(F)F)ccc3F)c(F)c2)c2c(N)ncnn2c1CN1CCOCC1 (2.5 µM),0,0,0,0,0,0,0,0,0,0,0,0,0,0,0,0,0,0,0,0
COc1ccc2c(C(=O)Nc3ccc(NC(=O)c4nn(C5CCN(C(=O)CC(C)(C)C#N)CC5)c5ccc(F)cc45)cc3Cl)cnn2c1 [Src Inhibitor 3] (2.5 µM),0,2,2,2,3,1,1,1,2,3,0,0,1,0,0,1,0,2,2,2
O=C(Nc1cc(C(F)(F)F)ccc1N1CCN(Cc2ccccn2)CC1)c1ccc(-c2ccncc2)o1 (10 µM),0,2,0,0,0,0,0,0,0,0,0,0,0,0,0,0,0,0,1,0
COc1cc(C(=O)NC2CCN(C)CC2)c(F)cc1Nc1ncc2c(n1)N(C1CCCC1)CC(F)(F)C(=O)N2C [TAK-960 (dihydrochloride)] (2.5 µM),0,0,0,0,0,0,0,0,0,0,0,0,0,0,0,0,0,0,0,0
Nc1nc(OCC2CCCCC2)c2[nH]cnc2n1 (10 µM),0,0,0,0,0,0,0,0,0,0,0,0,0,0,0,0,0,0,0,0

# In another format: 2 of the compounds above
SMILES | number of time points (PRKCA) | number of time points (PTK2) | number of time points (PTK2B) | number of time points (RAF1) | number of time points [1] | number of time points (RET) | number of time points [2] | number of time points (RIOK1) | number of time points (RIPK1) | number of time points (RIPK2) | number of time points (ROR2) | number of time points (RPS6KA1) | number of time points (SPHK1) | number of time points (SRC) | number of time points (STK24) | number of time points (STK38) | number of time points (SYK) | number of time points (TEC) | number of time points (TYK2) | number of time points (ULK3)
CN1CCN(C2CCN(C(=O)Nc3cc(Oc4ccc(NC(=O)C5(C(=O)Nc6ccc(F)cc6)CC5)c(F)c4)ccn3)CC2)CC1 [Golvatinib] (2.5 µM) | 0 | 0 | 0 | 2 | 3 | 0 | 0 | 1 | 0 | 4 | 0 | 0 | 0 | 0 | 0 | 0 | 0 | 0 | 3 | 2
O=C(O)CCNC(=O)c1ccc(/N=N/c2ccc(O)c(C(=O)O)c2)cc1 [Balsalazide] (10 µM) | 0 | 0 | 0 | 0 | 0 | 0 | 0 | 0 | 0 | 0 | 0 | 0 | 0 | 0 | 0 | 0 | 0 | 0 | 0 | 0
